In all, about 330,000 compounds went through this assay and about 610 (0.18%) were called active. The inconclusive results got no clear call from the source; some entries with a clear call stand among them for comparison. Calls follow the shape of the full dose curve. Potencies of inconclusive entries are doubtful fits and often do not repeat.
test: qHTS of Yeast-based Assay for SARS-CoV PLP; also: nearly all actives have a fitted effect of over 55% in size; details: S. cerevisiae expressing SARS-CoV PLpro; Potency: growth rescue; series mostly up to 32.9 µM
Potency is read from the fitted curve at half-maximal effect.

| Compound | Potency |
| --- | --- |
| COc1ccc(N2CCN(c3nc(C)c(C)c(=O)[nH]3)CC2)cc1 | inconclusive: 2.82 µM [activator, full curve] |
| CCc1cc2c(=O)[nH]c(-c3ccccn3)nc2s1 | inconclusive: 20 µM [activator, single point] |
| O=C(Nc1ccccc1)c1cc(-n2cnnc2)ccc1Cl | active: 10 µM |
| O=C(NC(=S)NCc1ccccc1)c1cccs1 | inconclusive: 3.55 µM [activator, single point] |
| CCCCC1(CC(=O)OCC)C(=O)N(c2ccccc2)N(c2ccccc2)C1=O | inactive |
| Cc1ccc(C(CC(=O)NCc2ccco2)c2ccccc2)c(O)c1 (stereo not drawn) | inactive |
| Nn1c(Cc2cccc3ccccc23)nnc1SCC(=O)NCC1CCCO1 (stereo not drawn) | inconclusive: 4.47 µM [activator, single point] |
| COc1ccc(-c2cc(N3C(=O)Nc4ccccc4N3O)n[nH]2)cc1 | active: 11.2 µM |
| Cc1csc(NC(=O)c2ccc(Br)s2)n1 | inconclusive: 2.51 µM [activator, single point] |
| COc1cccc2cc(C(=O)N3CCN(C(=O)c4ccccc4)CC3)c(=O)oc12 | inconclusive: 2.82 µM [activator, partial curve] |
| CC(=O)c1cccc(S(=O)(=O)Nc2cccc(S(=O)(=O)NC3=NCCC3)c2)c1 | inconclusive: 0.794 µM [activator, full curve, poor fit] |
| O=C(CCl)Nc1cccc(Oc2cnccn2)c1 | inconclusive: 11.2 µM [activator, single point] |
| CN1C(=O)NC(NC(=O)c2ccco2)(C(F)(F)F)C1=O (stereo not drawn) | inactive |
| Cc1c2cnn(CC(=O)N3CCC4(CC3)OCCO4)c(=O)c2c(C)n1Cc1ccccc1 | inactive |
| CC[n+]1c(/C=C(/C)SC)sc2ccccc21 | active: 3.55 µM |
| CCN(CC(=O)Nc1cc(C)nn1-c1nc(C)cc(C)n1)Cc1ccccc1 | inconclusive: 4.47 µM [activator, single point] |
| Fc1ccc(Oc2nc(-c3ccccc3)nnc2C(F)(F)F)cc1 | inconclusive: 3.16 µM [activator, partial curve] |
| O=C(CCc1ccccc1)Nc1ccc(Cl)cn1 | inconclusive: 3.16 µM [activator, single point] |
| Cc1ccc(NCc2nc(SCC(=O)Nc3ccccc3)n[nH]2)cc1 | inconclusive: 2.51 µM [activator, single point] |
| O=C(CCn1c(=O)oc2ccccc21)NC1=NCCS1 | inconclusive: 20 µM [activator, single point] |
| CC(=O)Nc1ccc(Sc2ncccc2C(=O)Nc2cc(Cl)cc(Cl)c2)cn1 | inconclusive: 20 µM [activator, single point] |
| O=C(N/N=C/c1cccnc1)c1cccc(Br)c1 | inconclusive: 14.1 µM [activator, single point] |
| Cc1nn(CC(=O)N2CCCC2)c(=O)c2cc3cc(F)ccc3n12 | inconclusive: 3.98 µM [activator, single point] |

Filtered by structure: those above containing a furan ring, fused or not (two)

| Compound | Potency |
| --- | --- |
| Cc1ccc(C(CC(=O)NCc2ccco2)c2ccccc2)c(O)c1 (stereo not drawn) | inactive |
| CN1C(=O)NC(NC(=O)c2ccco2)(C(F)(F)F)C1=O (stereo not drawn) | inactive |

Remaining list, next part:

| Compound | Potency |
| --- | --- |
| CC(C)NC(=O)c1ccccc1NC(=O)Cc1ccc(Cl)cc1 | inconclusive: 22.4 µM [activator, single point] |
| COC(=O)c1ccc(N=NNc2ccccc2)cc1 | inactive |
| Cc1ccc(N(CC(=O)NCCc2ccc(Cl)cc2)S(=O)(=O)c2c(C)noc2C)cc1 | inactive |
| COc1ccc(-c2nc(CS(=O)(=O)CC(=O)NC3CCC(C)CC3)c(C)o2)cc1 (stereo not drawn) | inconclusive: 2 µM [activator, full curve] |
| CCOC(=O)/C(=N/Nc1ccccc1)N1CCCc2ccccc21 | inconclusive: 0.794 µM [activator, full curve, poor fit] |
| CCN(CC)CCn1c2ccccc2c2n[nH]c(=S)nc21 | inconclusive: 4.47 µM [activator, single point] |
| Cc1ccc(-n2nc3c(=O)n(CC(=O)c4ccc(F)cc4)nc(C)c3c2C)cc1 | inconclusive: 20 µM [activator, single point] |
| COC(=O)c1sc(N)c(C(=O)OC)c1COC(=O)[C@@H](NS(=O)(=O)c1cccc(Cl)c1)C(C)C | inconclusive: 20 µM [activator, single point] |
| CS(=O)(=O)N1CCc2cc(C(=O)N3CCN(c4cccc(Cl)c4)CC3)ccc21 | inconclusive: 2.24 µM [activator, partial curve] |
| COc1cccc(NC(=O)COC(=O)CNS(=O)(=O)c2c(F)cccc2F)c1 | inconclusive: 3.98 µM [activator, single point] |
| CCn1c(SCC(=O)Nc2cc(C)on2)nc2c(c1=O)SCC2 | inconclusive: 7.94 µM [activator, partial curve, poor fit] |
| CC(=O)N1CCCc2cc(S(=O)(=O)N3CCCC(C(=O)N4CCN(c5cccc(Cl)c5)CC4)C3)ccc21 (stereo not drawn) | inconclusive: 0.316 µM [activator, full curve, poor fit] |
| Cc1ccccc1C1c2[nH]c3ccccc3c2C[C@H]2C(=O)N(c3ccccc3C(=O)NCCCN3CCOCC3)C(=O)N12 (stereo partly drawn) | inconclusive: 3.16 µM [activator, single point] |
| Cc1nc2ccccc2n1CCOc1ccc(F)cc1 | inconclusive: 20 µM [activator, single point] |
| O=C(Nc1nc(-c2ccccn2)cs1)c1ccco1 | inactive |
| COc1ccccc1CNC(=O)C1CCN(S(=O)(=O)c2ccc3nc4c(c(C(=O)O)c3c2)CCCC4)CC1 | inconclusive: 3.16 µM [activator, single point] |
| COc1ccc(NC(=S)NC(=O)c2ccc(Br)o2)cc1 | inactive |
| Cc1ccc(S(=O)(=O)NCCNc2ccc([N+](=O)[O-])cc2C(F)(F)F)cc1 | inactive |
| OC(COCc1ccccc1)CN1CCN(c2ccccc2F)CC1 (stereo not drawn) | inconclusive: 3.98 µM [activator, single point] |
| CS(=O)(=O)c1ccc(NC(=O)CCN2C(=O)C3CC=CCC3C2=O)cc1 (stereo not drawn) | inconclusive: 3.98 µM [activator, single point] |
| O=C(CCCOc1ccccc1)NCc1ccco1 | inconclusive: 0.316 µM [activator, partial curve, poor fit] |
| c1csc(-c2csc(-c3cccs3)n2)c1 | inconclusive: 3.55 µM [activator, single point] |
| O=S(=O)(Cc1ccccc1)NCc1cccnc1 | inactive |

| Compound | Potency |
| --- | --- |
| COC(=O)c1c(NC(=O)COC(=O)c2ccc(C)s2)sc2c1CCCCC2 | inconclusive: 0.355 µM [activator, partial curve, poor fit] |
| COc1cccc(NC(=O)CN2CCN(C(=O)c3ccco3)CC2)c1 | inconclusive: 3.98 µM [activator, single point] |
| Cc1ccc(S(=O)(=O)NCCC(=O)NCC(c2cccs2)N2CCOCC2)cc1 (stereo not drawn) | inconclusive: 3.98 µM [activator, single point] |
| O=C(CC1C(=O)NCCN1C(=O)c1ccccc1)Nc1cc(Cl)ccc1Cl (stereo not drawn) | inconclusive: 20 µM [activator, single point] |
| COc1ccccc1[C@@H]1C(c2cccc(C)c2)=NN(c2ccc(Br)cc2)[C@H]1C(=O)N1CCOC1=O | active: 3.98 µM |
| COc1ccc(CCn2nc(C)c([N+](=O)[O-])c2C)cc1 | inconclusive: 1.26 µM [activator, partial curve] |
| COc1ccc(CN2CCNC(=O)C2CC(=O)NCCCn2nnc3ccccc32)cc1C (stereo not drawn) | inconclusive: 10 µM [activator, partial curve] |
| Cc1cc(Cl)ccc1OCC(=O)N[C@@H](Cc1ccccc1)c1nc2ccccc2[nH]1 | inconclusive: 0.316 µM [activator, full curve, poor fit] |
| CC(C1CC1)N(Cc1ccccc1)C(=S)Nc1cccc(C(F)(F)F)c1 (stereo not drawn) | inconclusive: 20 µM [activator, single point] |
| CCN(NC(=O)C(O)(c1ccccc1)c1ccccc1)C(=O)c1ccccc1 | active: 14.1 µM |
| CN(NC(=O)C(C)(C)C)c1nc(-c2ccccc2)nnc1C(F)(F)F | inconclusive: 4.47 µM [activator, single point] |
| O=C(COC(=O)CCOc1ccccc1)Nc1ncc(Cl)cc1Cl | inconclusive: 20 µM [activator, single point] |
| COc1ccc(CSC2=NCCN2)cc1Br | inconclusive: 14.1 µM [activator, partial curve] |
| O=c1c2ccccc2nc(N/N=C/c2c(O)ccc3ccccc23)n1O | active: 12.6 µM |
| CC(Sc1nc(-c2ccccc2)cc(C(F)(F)F)n1)C(=O)Nc1sc2c(c1C(N)=O)CCC2 (stereo not drawn) | inconclusive: 4.47 µM [activator, single point] |
| Cc1ccc(S(=O)(=O)n2ccc(-c3cccc(OCc4c(F)cccc4Cl)c3)n2)cc1 | inconclusive: 12.6 µM [activator, partial curve] |
| Cc1ccc(C2OC(=O)C=C2c2ccccc2)cc1 (stereo not drawn) | inactive |
| O=C(/C=C/c1ccccc1)c1cc(Br)ccc(=O)c1O | active: 22.4 µM |
| C=CCn1c(C)cc(C(=O)CSc2nnc(Cc3ccccc3)o2)c1C | inconclusive: 0.398 µM [activator, partial curve, poor fit] |
| COc1ccc2c(/C=N/NS(=O)(=O)c3ccc(C)cc3)c[nH]c2c1 | inactive |
| CC(=O)c1ccc(N(C(=O)Cn2nnc3ccccc32)C(C(=O)NCc2ccccc2)c2ccccn2)cc1 (stereo not drawn) | active: 17.8 µM |
| CCC(=O)N1CCc2cc(S(=O)(=O)CCC(=O)N3CCCC(C)C3)ccc21 (stereo not drawn) | inconclusive: 20 µM [activator, single point] |

Gathered by group, the entries above containing a nitro group on carbon

| Compound | Potency |
| --- | --- |
| Cc1ccc(S(=O)(=O)NCCNc2ccc([N+](=O)[O-])cc2C(F)(F)F)cc1 | inactive |
| COc1ccc(CCn2nc(C)c([N+](=O)[O-])c2C)cc1 | inconclusive: 1.26 µM [activator, partial curve] |
